# Assay results

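SH-SY5Y cells carrying a GLuc-SERCaMP reporter are challenged with thapsigargin, and luminescence from the secreted luciferase is read, with one incubation step lasting 4 hours. Compounds were run as a dilution series spanning about 2.6e-05 to 200 µM, mostly topping out at 38.4 µM. The number is the fitted AC50 for inhibition of the reporter signal; a lower value means a more potent compound. Calls come from curve class and activity score: actives score 40 to 100, inconclusives 1 to 39, and inactives (curve class 4) score 0.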

Values are in µM. All entries here are filed as inconclusive. Only part of the assay is shown, chiefly results filed as inconclusive. Potencies fitted to partial, single-point or poorly fitting curves are rough. Some entries filed as inconclusive have a full curve. Activity scores are not listed here.

Nc1ncnc2c1ncn2C1CCCO1 (configuration not stated) read Potency 31.62 µM (inhibitor, partial curve, poor fit).
Oc1cc2c(cc1O)[C@H]1c3ccccc3CN[C@H]1CC2 read Potency 28.18 µM (inhibitor, single point).
NC1CCN(O)C1=O (configuration not stated) read Potency 35.48 µM (inhibitor, partial curve).
NS(=O)(=O)c1cccc2c1c([N+](=O)[O-])cc1nc(O)c(O)nc12 read Potency 35.48 µM (inhibitor, partial curve, poor fit).
COc1ccc(CCN(C)CCc2ccc(OC)c(OC)c2)cc1OC read Potency 10 µM (inhibitor, single point).
COc1ccc(-c2nc3cnc(OC)nc3n(C[C@H]3CCCO3)c2=O)cc1 read Potency 22.39 µM (inhibitor, single point).
c1ccc(N2CC[C@@]3(CCCNC3)C2)cc1 read Potency 31.62 µM (inhibitor, partial curve, poor fit).
CSc1ccc2c(c1)C(N1CCN(C)CC1)Cc1ccccc1S2 (configuration not stated) read Potency 12.59 µM (inhibitor, single point).
COCCn1c(=O)c(C)nc2cnc(Nc3ccccc3)nc21 read Potency 28.18 µM (inhibitor, single point).
c1ccc(N2CCC3(CCNCC3)CC2)nc1 read Potency 12.59 µM (inhibitor, partial curve, poor fit).
N=C1N=C(N)c2cc3ccccc3cc21 read Potency 11.22 µM (inhibitor, partial curve, poor fit).
CN(C)Cc1c[nH]c2ccccc12 read Potency 3.162 µM (inhibitor, full curve, poor fit).
Cc1nc(N=Nc2cc(S(=O)(=O)O)c3cc([N+](=O)[O-])cc(S(=O)(=O)O)c3c2)c(COP(=O)(O)O)c(C=O)c1O read Potency 2.239 µM (inhibitor, full curve).
CCCCNc1c(C(=O)OCC)c(C)nc2c1cnn2CC read Potency 28.18 µM (inhibitor, single point).
CS(=O)(=O)Nc1cccc(-c2nc(N3CCOCC3)c3ccccc3n2)c1 read Potency 31.62 µM (inhibitor, single point).
FC(F)(F)c1ccccc1-c1nc(NC2CCNCC2)c2ccccc2n1 read Potency 10 µM (inhibitor, partial curve, poor fit).
N[C@@H](C(=O)O)c1ccc(C(=O)O)cc1 read Potency 1 µM (inhibitor, full curve).
O=C(CCCCCN1CCN(c2ccccc2-c2ccccc2)CC1)NC1CCCc2ccccc21 (configuration not stated) read Potency 11.22 µM (inhibitor, single point).
COc1ccc(CNc2ncnc3ccc(-c4ccccc4OC)cc23)c(OC)c1 read Potency 10 µM (inhibitor, partial curve, poor fit).
C[N+](C)(CCCCCC[N+](C)(C)CCCN1C(=O)c2ccccc2C1=O)CCCN1C(=O)c2ccccc2C1=O read Potency 10 µM (inhibitor, full curve).
Cc1cccc(CNc2cc(-c3cccc(NS(C)(=O)=O)c3)ncn2)c1 read Potency 31.62 µM (inhibitor, single point).
CCN(CC)CCCCCCCCOC(=O)c1cc(OC)c(OC)c(OC)c1 read Potency 28.18 µM (inhibitor, partial curve, poor fit).
Nc1ccc(O)c([N+](=O)[O-])c1 read Potency 35.48 µM (inhibitor, partial curve, poor fit).
C[C@H](Cc1ccc(O)c(O)c1)[C@@H](C)Cc1ccc(O)c(O)c1 read Potency 2.512 µM (inhibitor, full curve, poor fit).
CN1CCN(c2ncc3nc(-c4cccc(C#N)c4)c(=O)n(CCC#N)c3n2)CC1 read Potency 22.39 µM (inhibitor, single point).

Some entries from above, unchanged:

structure,Potency (µM),remark
FC(F)(F)c1ccccc1-c1nc(NC2CCNCC2)c2ccccc2n1,10,"inhibitor, partial curve, poor fit"
C[N+](C)(CCCCCC[N+](C)(C)CCCN1C(=O)c2ccccc2C1=O)CCCN1C(=O)c2ccccc2C1=O,10,"inhibitor, full curve"
c1ccc(N2CCC3(CCNCC3)CC2)nc1,12.59,"inhibitor, partial curve, poor fit"

The results are deposited in PubChem (AID1508630; NCATS, 2021).